Data: paper doi:10.1101/2022.07.21.500812
Results are given in words; binding and its absence hold for the method and conditions named.

Protein sequences, listed by entry. Tags and fused reporters are not part of them. Lines headed by an entry give the natural chain unless they say otherwise; changes in a name come on top. Chains listed by the source or under a name are the forms on record and can include a tag or linker. Residues count along the entry.
UniProt Q8K1S4, residues 26-359: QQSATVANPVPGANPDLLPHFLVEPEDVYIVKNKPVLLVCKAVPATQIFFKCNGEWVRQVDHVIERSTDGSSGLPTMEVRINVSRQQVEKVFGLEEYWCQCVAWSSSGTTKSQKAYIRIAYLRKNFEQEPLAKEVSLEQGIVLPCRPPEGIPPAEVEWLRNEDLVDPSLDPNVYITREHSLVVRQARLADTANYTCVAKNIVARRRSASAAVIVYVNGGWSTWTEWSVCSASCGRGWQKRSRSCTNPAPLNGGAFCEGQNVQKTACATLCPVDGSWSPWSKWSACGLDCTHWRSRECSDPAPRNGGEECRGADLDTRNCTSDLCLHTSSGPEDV
hGPC3^core N241Q (hGPC3^coreUG) (P51654, form named): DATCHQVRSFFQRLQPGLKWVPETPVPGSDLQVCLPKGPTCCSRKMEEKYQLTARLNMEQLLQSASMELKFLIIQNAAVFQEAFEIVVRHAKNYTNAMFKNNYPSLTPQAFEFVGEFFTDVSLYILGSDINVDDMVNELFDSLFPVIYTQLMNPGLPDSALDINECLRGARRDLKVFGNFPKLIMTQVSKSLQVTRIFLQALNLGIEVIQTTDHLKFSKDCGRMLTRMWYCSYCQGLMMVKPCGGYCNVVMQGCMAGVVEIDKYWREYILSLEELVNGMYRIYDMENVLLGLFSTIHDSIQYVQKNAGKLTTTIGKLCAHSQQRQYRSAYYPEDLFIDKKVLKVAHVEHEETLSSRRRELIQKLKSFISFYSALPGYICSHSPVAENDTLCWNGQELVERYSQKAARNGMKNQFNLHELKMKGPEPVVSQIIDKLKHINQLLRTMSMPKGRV

Biological target: mouse Unc5A ectodomain (mUnc5A^ecto, residues 1-359) (mouse) (UniProt Q8K1S4)
Experiment: SPR

hGPC3^core N241Q (hGPC3^coreUG) (from UniProt P51654 32-483) (domain or fragment)
binding: no binding
